# Data as given in PubChem BioAssay AID1224828 (NIAID, 2016).
# Purpose: 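Knock-downs that increase or decrease LPS-induced p65 nuclear translocation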 (primary screen)
# Cell system: mouse RAW264.7 G9 macrophage reporter cells (GFP-p65, Tnf promoter-mCherry)
# Reagents: siRNA pool against mouse genes, 100 nM
# Time to read-out: 2 days siRNA transfection, then 40 min LPS before fixation
# Challenge: LPS (Salmonella minnesota R595) at 10 ng/ml
# Measured: 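Imaged p65 nuclear translocation ratio, normalised to the plate median, converted to robust z-scores and averaged across two replicates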
# Direction: p65 translocation robust z-score: higher = more nuclear NF-kappaB p65 after LPS than the plate median; nuclear/cytoplasmic p65 ratio: higher = more nuclear NF-kappaB p65
# Call rule: 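Active if robust z is above 3.3 (negative regulators) or below -1.56, the Tlr4 control median (positive regulators); activity score 50 or more; control wells not called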
# Meaning of the calls: active = hit (p65 shift raised or lowered); inactive = no clear change
# The deposit covers about 17,000 reagents; below is a random part of them. 762 of all reagents (4.5%) count as active. 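Active calls include both raised and lowered p65 entry, mostly lowered; wells with fewer than 50 cells lack a z-score.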 Raw values vary from plate to plate and are shown uncorrected. No sequences are given here.
gene knocked down,p65 translocation robust z-score,"nuclear/cytoplasmic p65 ratio, rep 1","nuclear/cytoplasmic p65 ratio, rep 2",low cell count flag,Call
Gga3,1.55,1.79,1.7,enough cells to score,inactive
Sox4 (SRY (sex determining region Y)-box 4),-0.65,1.43,1.48,enough cells to score,inactive
Gfi1 (growth factor independent 1 transcription repressor),-1.07,1.3,1.26,enough cells to score,inactive
Or8b44 (olfactory receptor family 8 subfamily B member 44),,1.25,1.21,fewer than 50 cells per well; well left out of scoring,inactive
Emid1 (EMI domain containing 1),0.34,1.52,1.4,enough cells to score,inactive
Erp27 (endoplasmic reticulum protein 27),,1.33,0.911,fewer than 50 cells per well; well left out of scoring,inactive
Mrpl54 (mitochondrial ribosomal protein L54),1.27,1.97,1.8,enough cells to score,inactive
Proser1 (proline and serine rich 1),2.25,1.59,1.87,enough cells to score,inactive
"Aaas (achalasia, adrenocortical insufficiency, alacrimia)",0.39,1.61,1.73,enough cells to score,inactive

Part of the list above in another layout.
Sox4 (SRY (sex determining region Y)-box 4) — p65 translocation robust z-score = -0.65; nuclear/cytoplasmic p65 ratio, rep 1 = 1.43; nuclear/cytoplasmic p65 ratio, rep 2 = 1.48; low cell count flag = enough cells to score; Call = inactive
Gfi1 (growth factor independent 1 transcription repressor) — p65 translocation robust z-score = -1.07; nuclear/cytoplasmic p65 ratio, rep 1 = 1.3; nuclear/cytoplasmic p65 ratio, rep 2 = 1.26; low cell count flag = enough cells to score; Call = inactive
Or8b44 (olfactory receptor family 8 subfamily B member 44) — nuclear/cytoplasmic p65 ratio, rep 1 = 1.25; nuclear/cytoplasmic p65 ratio, rep 2 = 1.21; low cell count flag = fewer than 50 cells per well; well left out of scoring; Call = inactive

More entries follow.
gene knocked down,p65 translocation robust z-score,"nuclear/cytoplasmic p65 ratio, rep 1","nuclear/cytoplasmic p65 ratio, rep 2",low cell count flag,Call
Cmc1 (C-X9-C motif containing 1),-3.04,0.971,0.963,enough cells to score,active
Pard6g (par-6 family cell polarity regulator gamma),0.41,1.45,1.29,enough cells to score,inactive
Thnsl1 (threonine synthase-like 1 (bacterial)),0.79,1.81,1.45,enough cells to score,inactive
Sdhd,0.51,1.46,1.79,enough cells to score,inactive
Cyren (cell cycle regulator of NHEJ),,1.62,1.47,fewer than 50 cells per well; well left out of scoring,inactive
Or2r11 (olfactory receptor family 2 subfamily R member 11),,1.55,1.1,fewer than 50 cells per well; well left out of scoring,inactive
A630012P03Rik (RIKEN cDNA A630012P03 gene),2.11,1.59,1.89,enough cells to score,inactive
Mmp24 (matrix metallopeptidase 24),0.48,1.52,1.39,enough cells to score,inactive
Mtfmt (mitochondrial methionyl-tRNA formyltransferase),,1.57,1.47,fewer than 50 cells per well; well left out of scoring,inactive
Elavl3 (ELAV like RNA binding protein 3),-0.15,1.54,1.26,enough cells to score,inactive
"Ap1m1 (adaptor-related protein complex AP-1, mu subunit 1)",-1.06,1.41,1.56,enough cells to score,inactive
Kcnd1,0.8,1.65,1.42,enough cells to score,inactive
"Cstf3 (cleavage stimulation factor, 3' pre-RNA, subunit 3)",1.08,1.63,1.51,enough cells to score,inactive
Or1e29 (olfactory receptor family 1 subfamily E member 29),-1.11,1.35,1.36,enough cells to score,inactive
Or5b122 (olfactory receptor family 5 subfamily B member 122),0.91,1.82,1.48,enough cells to score,inactive
